The list shows a part of the results. The main result of the screen is listed elsewhere. These columns were measured beside it and carry no call. The list favours compounds with an active or inconclusive main result. The note in brackets gives the kind of curve behind each potency; many fits are weak.
Assay: qHTS Assay for Lipid Storage Modulators in Drosophila S3 Cells;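 for cell number change: cells counted by Cell Tracker Red CMTPX staining in the red channel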
Conditions: BODIPY lipid droplet fluorescence, 18-24 h; for cell number change: measured here: cell count max response, cells fed with added oleic acid
Outline: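 Drosophila S3 cells got compounds at several concentrations plus oleic acid (400 uM solution). Laser-scanning cytometry with 488 nm excitation read lipid droplets at 500-530 nm and cells at 575-640 nm. Percent activity was relative to 20 uM Triacsin C.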

[1] = measured here: cell number channel AC50, cells fed with added oleic acid
[2] = measured here: lipid fluorescence (Fed channel) AC50, cells fed with added oleic acid

With `O=C(NC(Nc1ncc(S(=O)(=O)c2ccc([N+](=O)[O-])cc2)s1)(C(F)(F)F)C(F)(F)F)c1ccc(Cl)cc1` the cell number change was -49.2%, the AC50 [1] was 16.4 µM [falling, partial curve] and the AC50 [2] was 29.1 µM [falling, single point].

In the case of `Cc1cccc(-n2cc(CN3CCN(Cc4nccn4C)CC3)c(-c3cccc(F)c3)n2)c1`, the cell number change is reported as -10% and the AC50 [2] is reported as 20.6 µM [falling, single point].

With `O=S(=O)(NC1CCCCC1)c1ccc(F)c2ccccc12` the cell number change was -52.5% and the AC50 [1] was 29.1 µM [falling, single point].

For `Cc1ccc(NC(=O)CSC2=C(C#N)C(c3ccco3)C3=C(CCCC3=O)N2)cc1` (centres undefined), the AC50 [2] was 1.64 µM [falling, full curve, poor fit].

In the case of `CCOc1ccc(Oc2c(/C=N/NC(=O)C3CC3)c(C)nn2-c2ccccc2)cc1`, the cell number change is reported as -25.2% and the AC50 [2] is reported as 25.9 µM [falling, partial curve, poor fit].

In the case of `COc1ccc(C(CNC(=O)c2ccc(OCc3c(C)noc3C)cc2)N2CCCC2)cc1` (centres undefined), the cell number change is reported as -2.07% and the AC50 [2] is reported as 1.03 µM [rising, full curve].

With `O=C(c1ccc(N2CCOCC2)c([N+](=O)[O-])c1)N1CCN(S(=O)(=O)c2cccs2)CC1` the cell number change was 15.7% and the AC50 [2] was 29.1 µM [rising, single point].

With `COc1ccc(N(C(=O)Cn2nnc3ccccc32)C(C(=O)NCc2ccco2)c2cccnc2)cc1` (centres undefined) the cell number change was -40%, the AC50 [1] was 23.1 µM [falling, single point] and the AC50 [2] was 29.1 µM [falling, single point].

With `O=C(/C=C/c1ccccc1Cl)Nc1cccc(S(=O)(=O)NC2=NCCCCC2)c1` the cell number change was 8.6% and the AC50 [2] was 2.91 µM [falling, full curve].

For `CC1CC(C)CN(S(=O)(=O)N2CCCC(C(=O)NCc3ccccc3Cl)C2)C1` (centres undefined), the cell number change was 25.7% and the AC50 [2] was 20.6 µM [rising, single point].

With `Cc1csc2ncc(C(=O)NCCC(c3ccccc3)c3ccccc3)c(=O)n12` the cell number change was 52.5%, the AC50 [1] was 0.92 µM [rising, full curve] and the AC50 [2] was 1.16 µM [rising, full curve].

`Cc1cc(F)ccc1S(=O)(=O)Nc1ccccc1C(=O)NCc1ccccn1` showed a cell number change of 86.4%.

In the case of `CCCCN1C(=O)C(=O)N(CC(=O)N2N=C3/C(=C/c4ccco4)CCCC3C2c2ccco2)C1=O` (centres undefined), the AC50 [1] is reported as 0.0731 µM [falling, full curve, poor fit].

Compound `O=C(N/N=C/c1cccc(Br)c1)c1ccc(N2CCCC2=O)cc1` has a cell number change of 26.7%.

For `O=C(CSCc1ccc(Cl)cc1)Nc1ccc2c(c1)OCO2`, the cell number change was 19.5% and the AC50 [2] was 2.59 µM [rising, full curve].

With `CC(=O)c1ccccc1OCC(O)CN1CCN(C(c2ccccc2)c2ccccc2)CC1` (centres undefined) the cell number change was -59.7% and the AC50 [1] was 16.4 µM [falling, single point].

With `Cc1ccc2nc(NC(=O)COC(=O)CSc3nc(C)cc(C)n3)sc2c1` the cell number change was 46.6% and the AC50 [2] was 23.1 µM [rising, single point].

For `O=C(Nc1ccc(C(=O)NCc2ccc(F)cc2)cc1)C1=CSCCO1`, the cell number change was 42.7% and the AC50 [1] was 20.6 µM [rising, single point].

With `CCc1nnc(NC(=O)c2cc(-c3ccccn3)nc3ccccc23)s1` the AC50 [2] was 2.06 µM [rising, partial curve].

In the case of `CCNc1nnc(SCC(=O)NC2CCCCCC2)s1`, the cell number change is reported as 73.5% and the AC50 [1] is reported as 20.6 µM [rising, single point].

For `Oc1ccc(/C=N/NC(=S)NC2CC3CCC2C3)cc1` (centres undefined), the cell number change was -7.4%, the AC50 [1] was 0.00461 µM [falling, full curve, poor fit] and the AC50 [2] was 0.0058 µM [falling, full curve, poor fit].

In the case of `CC[C@@]1(c2ccccc2)C(=O)N(C(=O)OC)N1C(=O)OC`, the cell number change is reported as -6.59% and the AC50 [2] is reported as 6.51 µM [rising, single point].

`Oc1ccc(-c2nc3ccccc3s2)c(O)c1` gave a cell number change of 17.4%.

For `C/C(=N\NC(=S)Nc1cccc(C)c1)c1cccc(N)c1`, the cell number change was -0.963% and the AC50 [2] was 0.58 µM [rising, full curve, poor fit].

For `O=C1c2cccc([N+](=O)[O-])c2C(=O)N1C1CCCCC1`, the cell number change was -22.8%.

In the case of `O=C(c1cnc2sccn2c1=O)N1CCc2ccccc2C1`, the cell number change is reported as 14.5%.

For `COc1ccc(CNC(=O)COC(=O)CC2CC3CCC2C3)cc1OC` (centres undefined), the cell number change was 11.5%, the AC50 [1] was 0.116 µM [rising, full curve, poor fit] and the AC50 [2] was 29.1 µM [rising, single point].

In the case of `Cc1ccc(NC(=O)CCNS(=O)(=O)c2ccc3[nH]c(=O)oc3c2)cc1`, the cell number change is reported as -10% and the AC50 [2] is reported as 6.51 µM [falling, single point].

For `c1ccc(-c2nnc(OCc3cccnc3)c3ccccc23)cc1`, the cell number change was -33.4%, the AC50 [1] was 25.1 µM [falling, partial curve, poor fit] and the AC50 [2] was 35.5 µM [falling, partial curve, poor fit].

For `CCc1cccc(C)c1NC(=S)N(Cc1cccnc1)Cc1ccco1`, the cell number change was 6.26%, the AC50 [1] was 6.51 µM [rising, single point] and the AC50 [2] was 6.51 µM [rising, single point].

Work on `CN1CCN(c2ccc(NC(=O)CSc3nnnn3-c3ccccc3Cl)cc2)CC1` yielded a cell number change of -11.7%.

With `COc1ccccc1CCNC(=O)c1ccc(Br)s1` the cell number change was -7.23% and the AC50 [2] was 3.66 µM [rising, single point].

With `N#Cc1ccc(-c2csc(NC3=NCCCCC3)n2)cc1` the cell number change was 3.22% and the AC50 [2] was 0.82 µM [falling, full curve, poor fit].

For `Cc1cc(NS(=O)(=O)c2ccc(NC(=O)COc3ccc(Cl)cc3Cl)cc2)no1`, the AC50 [2] was 6.51 µM [rising, single point].

In the case of `Cc1ccccc1NC(=O)COC(=O)c1c[nH]c(=O)[nH]c1=O`, the cell number change is reported as 3.82% and the AC50 [2] is reported as 0.116 µM [rising, partial curve, poor fit].

`CCOC(=O)c1c(NC(=S)Nc2ccccc2)sc2c1CCN(CC)C2` gave a cell number change of 23.6%.

With `COc1ccc2c(c1)NC(c1ccc(N(C)C)cc1)c1cccn1-2` (centres undefined) the cell number change was -7.66%.

For `Cc1oc(-c2ccccc2F)nc1CS(=O)CC(=O)NCc1cccs1` (centres undefined), the cell number change was 16.3% and the AC50 [1] was 0.517 µM [rising, full curve, poor fit].

In the case of `CC(C)OC(=O)c1cccc(C(=O)Oc2ccccc2)n1`, the cell number change is reported as -10.5%, the AC50 [1] is reported as 0.00517 µM [falling, full curve, poor fit] and the AC50 [2] is reported as 9.2 µM [rising, partial curve].

Reference: PubChem BioAssay AID2685 (National Center for Advancing Translational Sciences (NCATS), 2010)
